The experiment has as its system rabbit aorta rings. Nature of the experiment: Vasorelaxant effect in vitro (rabbit aorta rings, phenylephrine-induced contraction). To be noted: Oryctolagus cuniculus; concentration reducing the height of the phenylephrine-induced contraction of rabbit aorta rings by 50%; 0.1% DMSO. The procedure: Rabbits are stunned by a blow to the neck and exsanguinated. The aorta is removed, freed from adhering tissue and divided into rings of a width of 1.5 mm. The rings are placed individually under an initial tension in 5 ml organ baths with Krebs-Henseleit solution which is at 37° C., is gassed with carbogen and has the following composition (in each case mM): NaCl: 119; KCl: 4.8; CaCl2×2H2O: 1; MgSO4×7H2O: 1.4; KH2PO4: 1.2; NaHCO3: 25; glucose: 10. The force of contraction is detected with Statham UC2 cells, amplified and digitized via A/D converters (DAS-1802 HC, Keithley Instruments, Munich) and recorded in parallel on chart recorders. Contractions are induced by cumulatively adding increasing concentrations of phenylephrine to the bath. After several control cycles, the substance to be investigated is added in each further run in increasing dosage, and the height of the contraction achieved is compared with the height of the contraction reached in the last preceding one. The concentration necessary to reduce the height of the control value by 50% is calculated from this (IC50 value). The standard application volume is 5 μl, the proportion of DMSO in the bath solution corresponds to 0.1%.

The structures appear in SMILES notation.

In turn, `CC(C)n1c(-c2nn(Cc3ccccc3F)c3ncccc23)n[nH]c1=O` [Example 6, 5-[1-(2-Fluorobenzyl)-1H-pyrazolo[3,4-b]pyridin-3-yl]-4-isopropyl-2,4-dihydro-3H-1,2,4-triazol-3-one] showed an IC50 of 950 nM.
